Reference: patent US10774049B2, “PU.1 inhibitors” (Albert Einstein College of Medicine, priority 2016, dated 2020)
Counter-ions that a name gives are not always drawn. Some entries share one result that the patent states for a list of compounds.

Molecular target: λB promoter DNA sequence
Experiment: SPR binding of compounds to immobilized λB promoter DNA
Design: species or system murine
Conditions: biosensor-SPR, 1:1 complex
Experimental: FIG. 8A-8C depicts (A) DB2313 synthesis (B-C) Representative SPR sensorgrams for compounds binding to the immobilized λB promoter DNA sequence: (B) DB2313 (KD=7±2 nM) and (C) DB1976 (KD=5±2 nM) as previously described (Munde et al., 2014). The solid black lines are best fit values for global kinetic fitting of the results with a single binding site function. Similar experiments with DB2115 gave a KD=1±2 nM. The plots are for the SPR signal (RU) versus time from injection of the compound over the sensorchip. From 0 to 180 seconds, compound is being injected (association) and after that only buffer flows over the chip. (B) From top to bottom: 10, 30, 40 nM. (C) From top to bottom: 5, 10, 15 nM.
To test whether these heterocyclic diamidines targeted cognate DNA binding sites for PU.1, we assessed binding to the λB motif by biosensor-surface plasmon resonance (SPR). Duplex DNA harboring the λB motif was immobilized on a streptavidin functionalized sensor chip with a dextran surface as described. The DNA was 5′-end labeled with biotin and captured on the sensor chip. Based on the known strong AT selectivity of these heterocyclic diamidines, they are expected to bind to the AT rich λB promoter sequence at the 5′ side of the 5′-GGAA-3′ PU.1 conserved recognition sequence. […]

Question: `N=C(N)c1ccc2nc(-c3ccc(-c4nc5ccc(C(=N)N)cc5[nH]4)[se]3)[nH]c2c1` [DB1976] was tested. Which Kd did it give?
Answer: 4 to 7 nM

Question: For `CC(C)NC(=N)c1ccc2nc(-c3ccc(OCc4cccc(COc5ccc(-c6nc7ccc(C(=N)NC(C)C)cc7[nH]6)cc5)c4F)cc3)[nH]c2c1` [DB2313, 3-Bis{4[4(5)-N-isopropylamidinobenzimidazolyl]phenoxymethyl]}-2-fluorobenzene tetrahydrochloride], which Kd is on record?
Answer: 4 to 7 nM
